For at least one compound, name, drawing or mass did not settle the structure.
Experiments:
[1] = system: peritoneal fibrosis induced by CHG; experiment: Peritoneal fibrosis induced by chlorhexidine gluconate (CHG) in mice; assay type: in vivo; details: i.p. at 2-day intervals from day 9, day 20, vs DMSO group, FIG. 9C
[2] = system: replicative senescent vascular endothelial cells; experiment: SAβG activity staining in replicative senescent vascular endothelial cells; assay type: cell-based, human; details: 100 nM, 4 days, replicative senescent HUVEC; FIG. 5A, 5B
[3] = system: replicative senescent melanocytes; experiment: SAβG staining and cell morphology analysis in replicative senescent melanocytes (HEM); assay type: cell-based, human
[4] = system: replicative senescent human fibroblasts; experiment: Western blot of PARP and caspase-3 in replicative senescent human fibroblasts; assay type: cell-based; details: young vs replicative senescent fibroblasts; FIG. 2D
[5] = system: replicative senescent human fibroblasts; experiment: CCK-8 cell survival by concentration in young and replicative senescent human fibroblasts; assay type: cell-based; details: young vs replicative senescent fibroblasts, 4 days; FIG. 2A, 2B
[6] = system: human fibroblasts in which early cellular aging was induced by doxorubicin treatment; experiment: CCK-8 cell survival in doxorubicin-induced premature senescent human fibroblasts; assay type: cell-based; details: 4 days, doxorubicin-senescent HDF
[7] = system: human vascular endothelial cells in which early cellular aging was induced by doxorubicin treatment; experiment: SAβG activity staining in doxorubicin-induced premature senescent vascular endothelial cells (HUVEC); assay type: cell-based; details: 4 days
early aged HK2 cells = experiment: CCK-8 cell survival in doxorubicin-induced early aged HK2 cells; assay type: cell-based, human; details: 100 nM, 4 days, vs DMSO-treated group, p<0.01; FIG. 3A, 3B
[8] = system: replicative senescent vascular endothelial cells; experiment: Western blot of p53 and p16 in replicative senescent vascular endothelial cells; assay type: cell-based, human; details: replicative senescent HUVEC; FIG. 5C
young melanocytes = experiment: Cell proliferation of young melanocytes (HEM); assay type: cell-based, human
[9] = system: early aged vascular endothelial cells; experiment: CCK-8 cell survival in doxorubicin-induced early aged vascular endothelial cells (HUVEC); assay type: cell-based, human; details: 100 nM, 4 days, vs DMSO-treated group, FIG. 4C
[10] = system: human retinal pigmented epithelial cells induced with early cellular aging; experiment: Western blot of p53 and p16 in doxorubicin-induced early aged retinal pigmented epithelial cells; assay type: cell-based; details: doxorubicin-senescent ARPE; FIG. 6C
[11] = system: human fibroblasts in which early cellular aging was induced by doxorubicin treatment; experiment: SAβG activity staining in doxorubicin-induced premature senescent human fibroblasts; assay type: cell-based; details: 100 nM, 4 days, doxorubicin-senescent HDF, vs DMSO-treated group; FIG. 1A, 1B
[12] = system: human retinal pigmented epithelial cells induced with early cellular aging; experiment: SAβG activity staining in doxorubicin-induced early aged retinal pigmented epithelial cells (ARPE); assay type: cell-based; details: 100 nM, 4 days, doxorubicin-senescent ARPE, vs DMSO-treated group, p<0.01; FIG. 6A, 6B
[13] = system: renal fibrosis induced by renal ischemia-reperfusion injury; experiment: Renal fibrosis induced by renal ischemia-reperfusion injury in mice; assay type: in vivo
[14] = system: replicative senescent vascular endothelial cells; experiment: CCK-8 analysis and LDH activity analysis in replicative senescent vascular endothelial cells; assay type: cell-based, human; details: replicative senescent HUVEC; FIG. 5D, 5E
[15] = kidney tissue, vs PBS group, FIG. 8K
[16] = kidney tissue, vs PBS group, FIG. 8M
[17] = mice, i.p. 3 times at 2-day intervals from day 4 after injury, day 11, FIG. 8B

What does the source list for `COC(=O)C[C@](O)(CCCC(C)(C)O)C(=O)O[C@@H]1C(OC)=C[C@]23CCCN2CCc2cc4c(cc2[C@H]13)OCO4` [homoharringtonine, Homoharringtonine]?
degree of peritoneal fibrosis [1]: decreased; thickness of the peritoneal mesothelial cell layer ([1]; 9D): significantly reduced; SAβG activity [2]: decreased; senomorphics effect compared to rapamycin ([3]; 100 nM each): more remarkable than that of rapamycin; number of cells exhibiting SAβG activity staining ([3]; 100 nM, 4 days, vs DMSO-treated group, FIG. 7A, 7C): significant decreased; number of cells exhibiting senescence-specific cell shape ([3]; 100 nM, 4 days, vs DMSO-treated group, FIG. 7D): significant decreased; PARP expression (Western blot) [4]: decreased; caspase-3 expression (Western blot) [4]: increased only in senescent cells; cell growth with increasing concentration [5]: significantly decreased in the senescent cells compared to the young cells in a concentration-dependent manner; cell survival / SAβG activity compared to rapamycin- and ABT263-treated groups ([6]; 100 nM each): significantly reduced compared to those of rapamycin- and ABT263-treated experimental group; cell survival (CCK-8) ([6]; 100 nM, vs DMSO-treated group, p<0.01, FIG. 1C): decreased significantly; SAβG activity compared to rapamycin ([7]; 100 nM each): significantly decreased than that of rapamycin; SAβG activity ([7]; 100 nM, vs DMSO-treated group, p<0.01, FIG. 4A, 4B): significantly decreased; survival of early aged HK2 cells (CCK-8) (early aged HK2 cells): significantly reduced; expression of p16 protein (Western blot) [8]: decreased; expression of p53 protein (Western blot) [8]: decreased; cell proliferation of young melanocytes (young melanocytes; 100 nM, 4 days, FIG. 7A, 7E): inhibited; number of cells before drug treatment (BT) vs after treatment (young melanocytes; young melanocytes, not caused by cell death, FIG. 7E): no difference; cell survival (CCK-8) [9]: no difference; expression of p16 protein (Western blot) [10]: decreased; expression of p53 protein (Western blot) [10]: decreased; SAβG activity [11]: significantly reduced compared to the DMSO-treated group; SAβG activity staining [12]: significantly decreased; expression of p53 (cellular aging marker, Western blot) ([13]; kidney tissue, vs PBS group): decreased; expression of pRb (cell proliferation marker, Western blot) ([13]; kidney tissue, vs PBS group): decreased; expression of type 1 collagen (COL1, fibrosis marker, Western blot) ([13]; kidney tissue, vs PBS group): decreased; degree of lipid oxidation (lipid hydroperoxides and MDA) ([13]; kidney tissue, vs PBS group, FIG. 8H, 8I): significantly reduced; superoxides in tissue ([13]; kidney tissue, vs PBS group, FIG. 8J): significantly reduced; 4-HNE (oxidative stress marker, Western blot) [13, 15]: significantly reduced; p16 (cellular aging marker, Western blot) [13, 15]: significantly reduced; expression of SOD2 (antioxidant enzyme, Western blot) [13, 16]: increased; expression of catalase (antioxidant enzyme, Western blot) [13, 16]: increased; degree of tissue fibrosis (trichrome staining) ([13]; kidney, vs PBS group, FIG. 8F): significantly decreased; Sudan Black B staining intensity (lipofuscin, cellular aging in tissue) ([13]; kidney, vs PBS group, FIG. 8G): decreased; body weight compared to PBS group [13, 17]: increased body weight compared to the PBS group; weight gain compared to Sham group [13, 17]: significantly reduced compared to the Sham group; damage to the renal tubules ([13]; renal tissue specimen, vs PBS group, FIG. 8E): significantly reduced; plasma creatinine ([13]; vs PBS group, FIG. 8C): decreased; plasma BUN ([13]; vs PBS group, FIG. 8D): decreased; cell survival (CCK-8 analysis and LDH activity analysis) [14]: did not affect the cell survival

Source: patent US11992492B2, “Composition for preventing or treating cellular senescence-associated diseases, containing homoharringtonine as active ingredient” (RESEARCH COOPERATION FOUNDATION OF YEUNGNAM UNIVERSITY, priority 2018, dated 2024)
